These are yes or no findings as the source states them, for the method shown. Some binding calls cover weakened binding; strength is not graded here.
Biological target: ovalbumin (OVA) (UniProt P01012)
Experiment: zeta potential (DLS, Zetasizer) of ovalbumin/MAP-AP mixtures at weight ratios 2, 1 and 0.5

Protein sequences, listed by entry. Tags and fused reporters are not part of them. Residues count along the entry.
UniProt P01012, residues 2-386: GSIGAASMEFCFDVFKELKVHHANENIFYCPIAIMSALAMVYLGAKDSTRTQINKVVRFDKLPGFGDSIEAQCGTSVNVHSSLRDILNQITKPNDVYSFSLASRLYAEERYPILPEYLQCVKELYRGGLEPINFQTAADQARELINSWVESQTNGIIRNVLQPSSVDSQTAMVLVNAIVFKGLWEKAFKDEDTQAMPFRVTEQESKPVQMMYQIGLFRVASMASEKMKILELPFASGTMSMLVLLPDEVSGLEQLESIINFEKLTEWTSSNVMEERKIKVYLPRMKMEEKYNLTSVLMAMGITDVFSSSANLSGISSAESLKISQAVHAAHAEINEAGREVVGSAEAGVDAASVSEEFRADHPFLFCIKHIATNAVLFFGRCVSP

B1: adhesive adjuvant protein (MAP-AP; MAP-based Adjuvant Protein) (other)
chain: MAKPSYPPTYKAKPSYPPTYKAKPSYPPTYKAKPSYPPTYKAKPSYPPTYKAKPSYPPTYKPWSSEEYKGGYYPGNTYHYHSGGSYHGSGYHGGYKGKYYGKAKKYYYKYKNSGKYKYLKKARKYHRKGYKKYYGGGSSAKPSYPPTYKAKPSYPPTYKAKPSYPPTYKAKPSYPPTYKAKPSYPPTYKAKPSYPPTYKLGGGGSAKFVAAWTLKAAA
notes: Recombinant fusion protein made in E. coli; also called MAP-based Adhesive adjuvant protein
  binding: binds
